The supplement of paper PMC10849652
The list shows a part of the results.

Amino acid sequences for entries named in this document (tags omitted). A change or cut given only in a name is not applied to a line headed by its entry.
UniProt Q96EY1: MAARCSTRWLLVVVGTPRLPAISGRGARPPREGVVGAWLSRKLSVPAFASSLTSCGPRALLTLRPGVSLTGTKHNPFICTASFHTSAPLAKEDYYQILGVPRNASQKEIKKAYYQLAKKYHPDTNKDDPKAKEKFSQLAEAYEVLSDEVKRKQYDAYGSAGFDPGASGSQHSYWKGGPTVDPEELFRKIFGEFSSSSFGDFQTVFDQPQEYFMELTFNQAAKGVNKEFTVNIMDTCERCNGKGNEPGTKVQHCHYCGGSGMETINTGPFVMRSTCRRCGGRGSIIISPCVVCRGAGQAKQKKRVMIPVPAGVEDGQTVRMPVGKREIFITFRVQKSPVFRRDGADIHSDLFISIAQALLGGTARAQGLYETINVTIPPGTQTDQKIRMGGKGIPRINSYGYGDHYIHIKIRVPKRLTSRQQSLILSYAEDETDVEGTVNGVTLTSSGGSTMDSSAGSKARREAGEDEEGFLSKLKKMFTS
UniProt O75521: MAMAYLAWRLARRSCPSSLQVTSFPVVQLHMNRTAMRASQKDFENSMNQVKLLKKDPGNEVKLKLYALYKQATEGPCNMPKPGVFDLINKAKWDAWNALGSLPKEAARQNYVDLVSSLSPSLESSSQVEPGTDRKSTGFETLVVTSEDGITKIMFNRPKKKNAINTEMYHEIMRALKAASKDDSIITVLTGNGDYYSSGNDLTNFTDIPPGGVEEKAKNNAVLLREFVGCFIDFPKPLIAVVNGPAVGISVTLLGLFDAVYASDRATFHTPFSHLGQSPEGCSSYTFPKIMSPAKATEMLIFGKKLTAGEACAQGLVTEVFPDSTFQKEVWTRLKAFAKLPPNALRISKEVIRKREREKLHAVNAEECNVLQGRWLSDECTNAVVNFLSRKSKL
UniProt Q13217: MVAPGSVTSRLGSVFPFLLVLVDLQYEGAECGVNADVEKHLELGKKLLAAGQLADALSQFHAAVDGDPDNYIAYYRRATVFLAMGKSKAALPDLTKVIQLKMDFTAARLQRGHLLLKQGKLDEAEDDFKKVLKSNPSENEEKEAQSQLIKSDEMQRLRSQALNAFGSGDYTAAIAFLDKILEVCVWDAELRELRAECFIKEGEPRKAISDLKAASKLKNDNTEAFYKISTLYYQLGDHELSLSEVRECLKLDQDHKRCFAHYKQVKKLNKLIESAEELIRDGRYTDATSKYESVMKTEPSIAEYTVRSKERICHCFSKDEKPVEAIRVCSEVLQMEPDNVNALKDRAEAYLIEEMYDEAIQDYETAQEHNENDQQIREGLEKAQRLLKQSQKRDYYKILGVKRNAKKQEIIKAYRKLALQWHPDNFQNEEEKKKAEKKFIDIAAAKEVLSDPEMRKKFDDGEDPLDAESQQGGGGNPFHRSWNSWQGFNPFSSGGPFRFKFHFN
UniProt O95620: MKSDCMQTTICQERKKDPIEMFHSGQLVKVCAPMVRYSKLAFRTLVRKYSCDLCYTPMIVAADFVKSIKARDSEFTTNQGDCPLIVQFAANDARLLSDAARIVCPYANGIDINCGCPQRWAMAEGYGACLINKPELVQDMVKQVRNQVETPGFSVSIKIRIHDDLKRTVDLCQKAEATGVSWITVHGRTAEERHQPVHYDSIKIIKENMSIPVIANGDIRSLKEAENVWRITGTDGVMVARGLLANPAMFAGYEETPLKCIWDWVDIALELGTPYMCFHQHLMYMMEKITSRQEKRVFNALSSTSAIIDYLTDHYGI
UniProt Q9Y2G8: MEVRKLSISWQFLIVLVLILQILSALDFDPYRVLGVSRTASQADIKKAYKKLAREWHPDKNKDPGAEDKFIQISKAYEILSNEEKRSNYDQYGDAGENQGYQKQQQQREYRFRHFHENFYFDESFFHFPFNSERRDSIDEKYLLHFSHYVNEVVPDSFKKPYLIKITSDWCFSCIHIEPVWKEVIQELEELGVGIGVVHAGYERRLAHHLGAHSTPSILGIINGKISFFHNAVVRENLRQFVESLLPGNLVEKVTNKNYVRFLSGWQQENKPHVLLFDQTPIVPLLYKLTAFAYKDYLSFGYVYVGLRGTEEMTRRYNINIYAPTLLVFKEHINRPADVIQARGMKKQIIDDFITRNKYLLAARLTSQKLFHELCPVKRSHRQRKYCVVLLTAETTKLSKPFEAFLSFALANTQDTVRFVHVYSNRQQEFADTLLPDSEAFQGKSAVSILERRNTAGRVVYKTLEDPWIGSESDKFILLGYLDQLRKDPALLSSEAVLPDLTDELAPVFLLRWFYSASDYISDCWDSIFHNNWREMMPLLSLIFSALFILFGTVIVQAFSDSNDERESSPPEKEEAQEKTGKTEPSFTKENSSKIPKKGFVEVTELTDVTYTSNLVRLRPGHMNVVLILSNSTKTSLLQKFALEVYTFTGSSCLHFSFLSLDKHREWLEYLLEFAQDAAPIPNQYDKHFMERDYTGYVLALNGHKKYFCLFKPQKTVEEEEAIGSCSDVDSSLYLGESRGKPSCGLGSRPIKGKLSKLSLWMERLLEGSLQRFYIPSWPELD
UniProt Q9Y6G9, whole entry, looked up: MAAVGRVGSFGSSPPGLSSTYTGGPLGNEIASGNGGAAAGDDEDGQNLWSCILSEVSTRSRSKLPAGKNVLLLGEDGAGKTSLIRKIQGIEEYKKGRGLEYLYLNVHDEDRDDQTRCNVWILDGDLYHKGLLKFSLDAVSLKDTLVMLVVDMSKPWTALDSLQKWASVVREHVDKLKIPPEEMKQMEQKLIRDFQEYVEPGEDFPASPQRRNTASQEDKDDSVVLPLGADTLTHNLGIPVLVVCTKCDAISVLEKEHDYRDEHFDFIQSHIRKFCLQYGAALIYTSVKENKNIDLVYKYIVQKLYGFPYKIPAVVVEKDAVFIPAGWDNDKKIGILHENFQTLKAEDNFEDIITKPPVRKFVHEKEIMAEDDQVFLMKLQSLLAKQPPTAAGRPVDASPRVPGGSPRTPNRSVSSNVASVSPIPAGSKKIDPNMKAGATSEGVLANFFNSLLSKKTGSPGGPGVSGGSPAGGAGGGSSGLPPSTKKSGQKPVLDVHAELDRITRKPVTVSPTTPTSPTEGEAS
UniProt Q8IXB1: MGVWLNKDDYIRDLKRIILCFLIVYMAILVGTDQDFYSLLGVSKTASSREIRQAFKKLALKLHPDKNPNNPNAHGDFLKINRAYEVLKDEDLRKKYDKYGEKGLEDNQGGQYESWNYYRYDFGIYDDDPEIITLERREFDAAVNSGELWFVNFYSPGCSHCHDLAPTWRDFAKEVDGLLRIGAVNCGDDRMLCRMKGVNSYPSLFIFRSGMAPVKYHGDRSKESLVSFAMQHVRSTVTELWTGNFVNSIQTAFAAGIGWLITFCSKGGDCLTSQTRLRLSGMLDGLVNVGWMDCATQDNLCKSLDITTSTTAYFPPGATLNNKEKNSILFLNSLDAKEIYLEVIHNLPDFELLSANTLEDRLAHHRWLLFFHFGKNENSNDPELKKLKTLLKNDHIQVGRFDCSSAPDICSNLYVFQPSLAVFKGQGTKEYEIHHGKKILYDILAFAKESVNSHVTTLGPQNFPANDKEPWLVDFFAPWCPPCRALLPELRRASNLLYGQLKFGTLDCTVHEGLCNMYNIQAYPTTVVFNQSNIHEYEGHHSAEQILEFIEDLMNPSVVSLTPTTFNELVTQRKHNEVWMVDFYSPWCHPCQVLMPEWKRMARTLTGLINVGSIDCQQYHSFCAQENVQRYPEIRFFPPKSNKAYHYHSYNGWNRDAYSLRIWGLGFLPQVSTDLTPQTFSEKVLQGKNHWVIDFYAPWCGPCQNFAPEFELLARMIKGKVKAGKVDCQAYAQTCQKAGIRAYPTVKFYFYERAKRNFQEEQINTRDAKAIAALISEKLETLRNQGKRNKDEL
UniProt Q6ZPD9: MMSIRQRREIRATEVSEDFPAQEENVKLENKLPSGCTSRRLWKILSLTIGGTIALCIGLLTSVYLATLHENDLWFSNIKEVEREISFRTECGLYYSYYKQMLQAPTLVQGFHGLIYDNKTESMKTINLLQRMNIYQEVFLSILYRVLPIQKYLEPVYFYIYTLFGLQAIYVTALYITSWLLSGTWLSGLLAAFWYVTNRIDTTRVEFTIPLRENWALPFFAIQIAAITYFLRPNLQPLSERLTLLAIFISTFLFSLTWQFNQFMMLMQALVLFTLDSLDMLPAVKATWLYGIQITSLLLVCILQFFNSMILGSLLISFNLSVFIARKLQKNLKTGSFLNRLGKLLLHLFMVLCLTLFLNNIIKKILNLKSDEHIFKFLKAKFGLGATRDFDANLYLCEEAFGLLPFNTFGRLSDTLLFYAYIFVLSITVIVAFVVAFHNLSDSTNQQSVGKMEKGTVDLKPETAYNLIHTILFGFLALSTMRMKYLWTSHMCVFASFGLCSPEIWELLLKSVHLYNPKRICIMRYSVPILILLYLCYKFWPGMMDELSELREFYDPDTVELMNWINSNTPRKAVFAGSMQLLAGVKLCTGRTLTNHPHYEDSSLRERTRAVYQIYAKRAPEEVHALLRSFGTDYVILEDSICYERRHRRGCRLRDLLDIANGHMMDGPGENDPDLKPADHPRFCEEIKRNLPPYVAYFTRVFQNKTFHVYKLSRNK
UniProt P30084: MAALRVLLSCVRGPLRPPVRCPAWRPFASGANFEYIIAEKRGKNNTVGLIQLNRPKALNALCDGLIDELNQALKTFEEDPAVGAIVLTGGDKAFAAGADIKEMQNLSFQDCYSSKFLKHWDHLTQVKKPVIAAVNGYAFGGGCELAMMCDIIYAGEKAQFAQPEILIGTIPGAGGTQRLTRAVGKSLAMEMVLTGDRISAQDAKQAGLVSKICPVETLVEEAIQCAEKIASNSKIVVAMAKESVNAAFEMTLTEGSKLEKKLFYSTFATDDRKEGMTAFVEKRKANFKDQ
UniProt P60981: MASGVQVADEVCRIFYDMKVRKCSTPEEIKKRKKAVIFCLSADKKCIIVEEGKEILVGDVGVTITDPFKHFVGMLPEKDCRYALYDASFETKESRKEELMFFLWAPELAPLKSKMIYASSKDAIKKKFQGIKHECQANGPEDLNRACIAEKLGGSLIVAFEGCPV
UniProt Q16610: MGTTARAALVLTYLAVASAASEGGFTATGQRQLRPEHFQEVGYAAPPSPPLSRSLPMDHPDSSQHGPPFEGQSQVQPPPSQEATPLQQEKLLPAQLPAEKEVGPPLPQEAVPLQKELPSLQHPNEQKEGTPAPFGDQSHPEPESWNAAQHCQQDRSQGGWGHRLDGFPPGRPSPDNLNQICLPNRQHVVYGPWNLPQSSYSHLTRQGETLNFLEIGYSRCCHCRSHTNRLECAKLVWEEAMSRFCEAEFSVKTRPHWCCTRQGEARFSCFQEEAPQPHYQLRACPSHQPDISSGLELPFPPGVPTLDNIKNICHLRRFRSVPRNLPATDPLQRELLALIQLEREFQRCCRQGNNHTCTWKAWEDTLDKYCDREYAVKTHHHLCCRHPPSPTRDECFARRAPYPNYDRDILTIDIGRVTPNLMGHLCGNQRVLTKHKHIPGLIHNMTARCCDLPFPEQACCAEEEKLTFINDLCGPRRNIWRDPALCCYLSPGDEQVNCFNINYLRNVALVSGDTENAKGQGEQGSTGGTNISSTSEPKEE
UniProt Q9NY33: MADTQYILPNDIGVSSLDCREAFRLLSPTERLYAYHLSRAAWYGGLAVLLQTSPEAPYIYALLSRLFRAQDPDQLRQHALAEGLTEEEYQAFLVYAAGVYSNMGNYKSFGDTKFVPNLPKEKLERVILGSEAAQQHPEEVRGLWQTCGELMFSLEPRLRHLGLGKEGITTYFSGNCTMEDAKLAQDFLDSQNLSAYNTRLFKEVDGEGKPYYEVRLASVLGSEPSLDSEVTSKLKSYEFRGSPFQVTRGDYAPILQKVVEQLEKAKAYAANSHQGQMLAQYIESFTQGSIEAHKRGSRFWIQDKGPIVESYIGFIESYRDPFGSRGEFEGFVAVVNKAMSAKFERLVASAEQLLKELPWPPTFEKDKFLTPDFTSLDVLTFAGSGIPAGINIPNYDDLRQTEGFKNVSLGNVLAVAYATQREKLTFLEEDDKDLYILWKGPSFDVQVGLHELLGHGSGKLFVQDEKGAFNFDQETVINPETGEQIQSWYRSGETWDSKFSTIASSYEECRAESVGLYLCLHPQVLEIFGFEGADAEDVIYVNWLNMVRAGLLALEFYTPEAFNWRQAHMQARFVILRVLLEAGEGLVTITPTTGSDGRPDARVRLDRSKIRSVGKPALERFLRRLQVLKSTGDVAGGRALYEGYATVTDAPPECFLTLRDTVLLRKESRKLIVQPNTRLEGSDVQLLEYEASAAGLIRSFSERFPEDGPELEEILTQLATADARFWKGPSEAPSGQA
UniProt Q96FJ2, whole entry, looked up: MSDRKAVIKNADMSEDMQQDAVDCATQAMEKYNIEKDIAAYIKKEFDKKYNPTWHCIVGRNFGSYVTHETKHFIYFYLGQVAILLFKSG

Experiments:
Assay in all cases: log2 fold change, soluble protein after heating vs DMSO (PISA); higher = thermal stabilisation; K562 cells, 10 uM, 30 min; active = over 0.2 and 3.5 SD of the protein, either way, in both replicates (recomputed)
[1] = compound: CC[C@@H]1C(=O)N(C)c2cnc(Nc3ccc(C(=O)NC4CCN(C)CC4)cc3OC)nc2N1C1CCCC1
Method in brief: (§1)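 K562 cells at 2×10^6 cells/mL were treated for 30 min with 10 μM compound, and aliquots were heated for 3 min over 48°C-58°C before pooling. Extraction used PBS with 0.5% NP-40 at 4°C, and soluble protein was the supernatant after 21,000xg for 90 min, measured by TMTpro 16plex LC-MS/MS with channel sums equalised. Thermal stability values, relative to control samples and from duplicates, are log2 fold changes.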

[2] = compound: CC[C@@H]1C(=O)N(C)c2cnc(Nc3ccc(C(=O)N[C@H]4CC[C@H](N5CCN(CC6CC6)CC5)CC4)cc3OC)nc2N1C(C)C [volasertib]
Method in brief: as §1

[3] = compound: CC[C@H](C)N1C=C(C2=C(C=C(C=C21)C3=CN=C(C=C3)N4CCNCC4)C(=O)NCC5=C(C=C(NC5=O)C)C)C
Method in brief: as §1

[4] = compound: CC[C@H](C)[C@@H](C(=O)N[C@@H]([C@@H](C)O)C(=O)N[C@@H](CC(C)C)C(=O)[C@]1(CO1)C)NC(=O)[C@H]([C@@H](C)CC)N(C)C(=O)C [epoxomicin]
Method in brief: as §1

[5] = compound: CCn1c(C(=O)N(C2CC2)C2CC2)cc2c3c(ncn3C)c(Nc3cc(C)n(C)n3)nc21
Method in brief: as §1

[6] = compound: CCn1cc(-c2ccnc3[nH]c(-c4cccc(CN(C)C)c4)cc23)c(-c2ccc(NC(=O)N(C)C)cc2)n1
Method in brief: as §1

[7] = compound: CN(C)CC(=O)Nc1ccc2[nH]c(=O)c3ccccc3c2c1
Method in brief: as §1

[8] = compound: CN(CCOC1=CC=C(C=C1)C[C@H]2C(=O)NC(=O)S2)C3=CC=CC=N3 (racemic) [rosiglitazone]
Method in brief: as §1

[9] = compound: CN1C2=C(C3=C1C(=O)N(N=C3)CC4=CC(=CC=C4)N)SC(=C2)S(=O)C
Method in brief: as §1

[10] = compound: CN1CCC(CNc2ccc3ncc(-c4cccc(OC(F)(F)F)c4)n3n2)CC1
Method in brief: as §1

[11] = compound: CN1CCN(CCOc2cc(OC3CCOCC3)c3c(Nc4c(Cl)ccc5c4OCO5)ncnc3c2)CC1 [saracatinib]
Method in brief: as §1

[12] = compound: CN1CCN(c2nc(C3=C(c4c[nH]c5ccccc45)C(=O)NC3=O)c3ccccc3n2)CC1 [sotrastaurin]
Method in brief: as §1

[13] = compound: CN1CC[C@H](c2c(O)cc(O)c3c(=O)cc(-c4ccccc4Cl)oc23)[C@H](O)C1 [alvocidib]
Method in brief: as §1

[14] = compound: CN1CCc2c(c3ccccc3n2Cc2ccc(C(=O)NO)cc2)C1 [Tubastatin A]
Method in brief: as §1

[15] = compound: CNC(=O)C1=CC=CC=C1NC2=NC(=NC=C2Cl)NC3=C(C=C(C=C3)N4CCOCC4)OC
Method in brief: as §1

[16] = compound: CNC(=O)c1ccc(Nc2ncc(C(F)(F)F)c(NCc3nccnc3N(C)S(C)(=O)=O)n2)cc1 [defactinib]
Method in brief: as §1

[17] = compound: CNCc1ccc(-c2[nH]c3cc(F)cc4c3c2CCNC4=O)cc1 [rucaparib]
Method in brief: as §1

[18] = compound: CNc1nc(-c2ccc3c(N)n[nH]c3c2)cc(N2C[C@@H](C(=O)NC3CCCCC3)CC[C@H]2C)n1
Method in brief: as §1

[19] = compound: COC(=O)N[C@@H](C)CNc1nccc(-c2cn(C(C)C)nc2-c2cc(Cl)cc(NS(C)(=O)=O)c2F)n1 [encorafenib]
Method in brief: as §1

[20] = compound: COC(=O)[C@H](CCSC)NC(=O)C1=C(C=C(C=C1)NC[C@H](CS)N)C2=CC=CC=C2
Method in brief: as §1

Measured: log2 fold change

DNAJA3 (UniProt Q96EY1)
inactive: [1] 0.046 | [2] -0.101 | [3] 0.122 | [4] -0.037 | [5] -0.036 | [6] -0.019 | [7] -0.071 | [8] 0.058 | [9] -0.022 | [10] 0.016 | [11] -0.079 | [12] -0.027 | [13] 0.028 | [14] 0.018 | [15] -0.058 | [16] -0.004 | [17] 0.317 | [18] 0.023 | [19] 0.04 | [20] -0.044

DST (UniProt Q03001)
inactive: [1] 0.046 | [2] 0.166 | [3] -0.179 | [4] -0.222 | [5] -0.063 | [6] -0.034 | [7] -0.054 | [8] 0.055 | [9] 0.063 | [10] -0.085 | [11] -0.096 | [12] 0.05 | [13] 0.137 | [14] 0.07 | [15] -0.186 | [16] 0.01 | [17] 0.133 | [18] 0.027 | [19] -0.059 | [20] -0.035

ECI2 (UniProt O75521)
inactive: [1] -0.003 | [2] -0.039 | [3] -0.008 | [4] -0.013 | [5] -0.029 | [6] -0.014 | [7] 0.005 | [8] 0.007 | [9] -0.081 | [10] -0.034 | [11] 0.002 | [12] 0.039 | [13] -0.005 | [14] -0.005 | [15] -0.011 | [16] -0.039 | [17] -0.01 | [18] -0.031 | [19] 0.019 | [20] -0.01

DNAJC3 (UniProt Q13217)
inactive: [1] -0.011 | [2] 0 | [3] 0.08 | [4] -0.021 | [5] 0.021 | [6] 0.029 | [7] -0.052 | [8] -0.006 | [9] 0.081 | [10] 0.091 | [11] -0.06 | [12] 0.007 | [13] 0.037 | [14] -0.008 | [15] 0.014 | [16] 0.028 | [17] 0.042 | [18] -0.038 | [19] 0.042 | [20] 0.01

Two entries drawn at random from the list so far:
DNAJC3 (UniProt Q13217)
inactive: [1] -0.011 | [2] 0 | [3] 0.08 | [4] -0.021 | [5] 0.021 | [6] 0.029 | [7] -0.052 | [8] -0.006 | [9] 0.081 | [10] 0.091 | [11] -0.06 | [12] 0.007 | [13] 0.037 | [14] -0.008 | [15] 0.014 | [16] 0.028 | [17] 0.042 | [18] -0.038 | [19] 0.042 | [20] 0.01

ECI2 (UniProt O75521)
inactive: [1] -0.003 | [2] -0.039 | [3] -0.008 | [4] -0.013 | [5] -0.029 | [6] -0.014 | [7] 0.005 | [8] 0.007 | [9] -0.081 | [10] -0.034 | [11] 0.002 | [12] 0.039 | [13] -0.005 | [14] -0.005 | [15] -0.011 | [16] -0.039 | [17] -0.01 | [18] -0.031 | [19] 0.019 | [20] -0.01

(list continues)

DUS4L (UniProt O95620)
inactive: [1] -0.013 | [2] 0.089 | [3] -0.01 | [4] -0.302 | [5] 0.05 | [6] -0.025 | [7] -0.029 | [8] 0.047 | [9] -0.049 | [10] 0.041 | [11] 0.08 | [12] 0.099 | [13] -0.026 | [14] -0.034 | [15] -0.072 | [16] -0.015 | [17] -0.024 | [18] 0 | [19] 0.025 | [20] 0.014

DNAJC16 (UniProt Q9Y2G8)
inactive: [1] 0.117 | [2] 0.032 | [3] -0.024 | [4] 0.202 | [5] -0.014 | [6] 0.029 | [7] 0.015 | [8] -0.054 | [9] -0.058 | [10] 0.044 | [11] -0.117 | [12] -0.019 | [13] 0.047 | [14] -0.046 | [15] 0.102 | [16] 0.157 | [17] 0.157 | [18] 0.034 | [19] 0.094 | [20] -0.081

DNMT1 isoform 2 (UniProt P26358)
inactive: [1] 0.002 | [2] 0.01 | [3] 0.029 | [4] 0.005 | [5] -0.001 | [6] -0.022 | [7] 0.012 | [8] 0.007 | [9] -0.066 | [10] 0.079 | [11] 0.019 | [12] -0.014 | [13] -0.033 | [14] -0.009 | [15] 0.03 | [16] -0.007 | [17] -0.011 | [18] -0.016 | [19] -0.006 | [20] -0.016

DYNC1LI1 (UniProt Q9Y6G9)
inactive: [1] -0.004 | [2] 0.048 | [3] 0.006 | [4] 0.037 | [5] 0.008 | [6] -0.041 | [7] 0.022 | [8] 0.027 | [9] -0.007 | [10] -0.025 | [11] -0.046 | [12] -0.059 | [13] -0.021 | [14] 0.006 | [15] 0.035 | [16] 0.003 | [17] -0.017 | [18] 0.042 | [19] 0.062 | [20] -0.013

DNAJC10 (UniProt Q8IXB1)
inactive: [1] 0.056 | [2] 0.004 | [3] 0.035 | [4] -0.036 | [5] 0.006 | [6] 0.062 | [7] -0.024 | [8] -0.084 | [9] 0.056 | [10] 0.122 | [11] -0.026 | [12] -0.017 | [13] 0.015 | [14] 0.043 | [15] -0.042 | [16] 0.095 | [17] 0.127 | [18] 0.077 | [19] 0.04 | [20] -0.011

DPY19L3 (UniProt Q6ZPD9)
inactive: [1] 0.032 | [2] 0.072 | [3] 0.007 | [4] 0.127 | [5] -0.012 | [6] -0.072 | [7] 0.045 | [8] -0.013 | [9] 0.079 | [10] -0.031 | [11] -0.151 | [12] -0.051 | [13] -0.062 | [14] 0.101 | [15] -0.035 | [16] 0.011 | [17] -0.002 | [18] 0.05 | [19] -0.068 | [20] -0.033

ECHS1 (UniProt P30084)
inactive: [1] -0.041 | [2] -0.06 | [3] 0.052 | [4] -0.005 | [5] 0.003 | [6] -0.131 | [7] 0.026 | [8] 0.013 | [9] -0.134 | [10] 0.058 | [11] 0.06 | [12] 0.065 | [13] -0.085 | [14] -0.017 | [15] 0.004 | [16] -0.042 | [17] -0.062 | [18] 0.023 | [19] 0.032 | [20] -0.048

DYNC1H1 (UniProt Q14204)
inactive: [1] 0.011 | [2] -0.009 | [3] 0.045 | [4] 0.014 | [5] 0.008 | [6] -0.042 | [7] 0.011 | [8] 0.036 | [9] -0.022 | [10] -0.022 | [11] -0.022 | [12] -0.016 | [13] -0.047 | [14] 0.004 | [15] 0.016 | [16] -0.006 | [17] -0.004 | [18] 0.033 | [19] 0.025 | [20] -0.024

DSTN (UniProt P60981)
inactive: [1] -0.008 | [2] 0.025 | [3] 0.053 | [4] 0.005 | [5] 0 | [6] -0.056 | [7] -0.016 | [8] 0.009 | [9] -0.057 | [10] -0.026 | [11] -0.008 | [12] -0.035 | [13] -0.027 | [14] -0.053 | [15] 0.025 | [16] -0.005 | [17] -0.022 | [18] -0.046 | [19] -0.005 | [20] 0.029

ECM1 isoform 4 (UniProt Q16610)
inactive: [1] 0.027 | [2] 0.052 | [3] -0.018 | [4] 0.026 | [5] 0.038 | [6] 0.007 | [7] 0.02 | [8] 0.007 | [9] 0.086 | [10] 0.095 | [11] 0.05 | [12] 0.012 | [13] 0.004 | [14] -0.007 | [15] -0.017 | [16] -0.003 | [17] -0.003 | [18] -0.097 | [19] -0.032 | [20] 0.054

DPP3 (UniProt Q9NY33)
inactive: [1] -0.017 | [2] -0.013 | [3] 0.066 | [4] -0.003 | [5] -0.01 | [6] -0.113 | [7] 0.022 | [8] 0.07 | [9] -0.126 | [10] -0.183 | [11] -0.027 | [12] 0.042 | [13] -0.052 | [14] 0.019 | [15] -0.015 | [16] -0.058 | [17] -0.045 | [18] 0.016 | [19] -0.017 | [20] 0.069

DYNLL2 (UniProt Q96FJ2)
inactive: [1] -0.035 | [2] -0.048 | [3] 0.017 | [4] 0.009 | [5] 0.041 | [6] -0.019 | [7] 0.015 | [8] -0.051 | [9] -0.087 | [10] -0.062 | [11] -0.101 | [12] -0.095 | [13] -0.065 | [14] 0.038 | [15] -0.005 | [16] -0.036 | [17] 0.113 | [18] 0.063 | [19] -0.041 | [20] -0.068
